Source: PubChem BioAssay AID248 (DTP/NCI, 2004)
The list does not hold the whole screen: it is rich in T/C values a quarter to a half above the control, in often repeated tests (any T/C) and in doses without a T/C. Other doses and runs of a compound stand elsewhere. T/C is the treated group as % of the vehicle group. Some entries give survivors of the animals treated and no T/C: the source files T/C as zero there, which appears to mark a toxic dose or a test without result, not a measured value. Some doses without a T/C left all or most animals alive at the check, yet need not have been tolerated: the source hardly ever lists a survival T/C far under the control, and the zero likely stands for such cases as well. Counts of survivors are from the toxicity check (mostly the fifth day) where no day follows; animals may have died later. Schedules are NCI's codes, taken here to give the interval after Q, in days (D) or hours (H), and the number of doses after X. For survival time, this PubChem deposit counts one and a half times the control or more as active, and values a quarter to a half above the control carry no call in these data; other NCI protocols may use other cut-offs. Some T/C values are followed by the survivors on the day toxicity was checked, most often the fifth; where none is given, no animal had died by that day. Some doses were run more than once; the values are given in rising order. Counts like (3×) give the number of equal values in this list. Some schedule codes hold Z or #, which are not explained here.

Tested on: L1210 leukemia ip in BDF1 mice, survival T/C
Test: NCI In Vivo Anticancer Drug Screen. Data for tumor model L1210 Leukemia (intraperitoneal) in B6D2F1 (BDF1) mice
Conditions: T/C endpoint: mean survival time, higher T/C = longer survival
[1] = dose: 20.0 mg/kg/injection, schedule: Q01DX015 (ip), vehicle: clinical formulation
[2] = dose: 44.0 mg/kg/injection, schedule: Q01DX015 (ip), vehicle: clinical formulation
[3] = dose: 100.0 mg/kg/injection, schedule: Q01DX015 (ip), vehicle: water

Nc1nc2n[nH]nc2c(=O)[nH]1
T/C (dose: 6.25 mg/kg/injection, schedule: Q#A X Z (ip), vehicle: water): 130 % of control | T/C (dose: 7.5 mg/kg/injection, schedule: Q01DX Z (ip), vehicle: carboxymethylcellulose (CMC)): 128 % of control | T/C (dose: 11.18 mg/kg/injection, schedule: Q01DX Z (ip), vehicle: carboxymethylcellulose (CMC)): 139 [9 of 10 alive] and 142 % of control | T/C (dose: 12.5 mg/kg/injection, schedule: Q01DX009 (ip), vehicle: carboxymethylcellulose (CMC)): 138 % of control | T/C (dose: 12.5 mg/kg/injection, schedule: Q01DX009 (ip), vehicle: saline): 145 % of control | T/C (dose: 12.5 mg/kg/injection, schedule: Q01DX010 (ip), vehicle: alkali diluted with saline): 124, 125, 128, 129, 141, 143 % of control | T/C (dose: 12.5 mg/kg/injection, schedule: Q01DX Z (ip), vehicle: water): 133 % of control | T/C (dose: 12.5 mg/kg/injection, schedule: Q01DX Z (sc), vehicle: water): 130 % of control | T/C (dose: 15.0 mg/kg/injection, schedule: Q01DX Z (ip), vehicle: carboxymethylcellulose (CMC)): 146 % of control | T/C [1]: 139 % of control | survivor count [1]: 0 of 6 | T/C (dose: 20.0 mg/kg/injection, schedule: Q01DX Z (ip), vehicle: other): 128 % of control | T/C (dose: 25.0 mg/kg/injection, schedule: Q01DX005 (ip), vehicle: saline with Tween-80): 121, 123, 125, 126 (2×), 127, 130, 131, 132, 133, 134, 136, 137 (2×), 138, 142 (2×), 147, 148, 150, 151 % of control | T/C (dose: 25.0 mg/kg/injection, schedule: Q01DX005 (ip), vehicle: saline): 120, 122, 123 (2×), 125, 126, 128 (6×), 129 (2×), 130 (2×), 131, 132 (2×), 134 (3×), 135 (2×), 137, 138 (2×), 138 [5 of 6 alive], 140 (6×), 141 (4×), 144, 145 (2×), 147, 148, 151, 166, 170 % of control | T/C (dose: 25.0 mg/kg/injection, schedule: Q01DX009 (ip), vehicle: carboxymethylcellulose (CMC)): 147 % of control | T/C (dose: 25.0 mg/kg/injection, schedule: Q01DX009 (ip), vehicle: other, evaluated on day 30): 130 % of control | T/C (dose: 25.0 mg/kg/injection, schedule: Q01DX009 (ip), vehicle: other, evaluated on day 40): 138 and 145 % of control | T/C (dose: 25.0 mg/kg/injection, schedule: Q01DX009 (ip), vehicle: saline): 148 % of control [5 of 6 alive] | T/C (dose: 25.0 mg/kg/injection, schedule: Q01DX010 (ip), vehicle: alkali diluted with saline): 138, 141, 150, 153 % of control | T/C (dose: 25.0 mg/kg/injection, schedule: Q01DX Z (im), vehicle: water): 128 % of control | T/C (dose: 25.0 mg/kg/injection, schedule: Q01DX Z (ip), vehicle: other): 125 and 137 % of control | T/C (dose: 25.0 mg/kg/injection, schedule: Q01DX Z (sc), vehicle: water): 126 % of control | T/C (dose: 37.0 mg/kg/injection, schedule: Q03DX Z (ip), vehicle: water): 127 % of control | T/C (dose: 37.5 mg/kg/injection, schedule: Q02DX005 (ip), vehicle: carboxymethylcellulose (CMC)): 144 % of control | T/C (dose: 39.0 mg/kg/injection, schedule: Q01DX015 (ip), vehicle: water): 146 % of control | T/C [2]: 139 % of control | survivor count [2]: 0 of 6 | T/C (dose: 50.0 mg/kg/injection, schedule: Q01DX005 (ip), vehicle: saline with Tween-80): 122, 123 (2×), 131 (2×), 131 [5 of 6 alive], 132, 133 (2×), 135, 138, 140, 144, 148 (2×), 149 (2×), 151, 155, 158, 159 % of control | T/C (dose: 50.0 mg/kg/injection, schedule: Q01DX005 (ip), vehicle: saline): 109, 122, 128 [5 of 6 alive], 130, 133 (2×), 134, 135 (3×), 136 (3×), 137 (2×), 138 (4×), 139 (2×), 140 (2×), 141 (2×), 142 (3×), 143 (4×), 145 (2×), 146 (3×), 147 (3×), 150, 153 (3×), 155, 161 % of control | T/C (dose: 50.0 mg/kg/injection, schedule: Q01DX006 (iv), vehicle: water): 127 % of control | T/C (dose: 50.0 mg/kg/injection, schedule: Q01DX009 (ip), vehicle: other, evaluated on day 30): 142 % of control | T/C (dose: 50.0 mg/kg/injection, schedule: Q01DX009 (ip), vehicle: other, evaluated on day 40): 148 % of control | T/C (dose: 50.0 mg/kg/injection, schedule: Q01DX009 (ip), vehicle: saline): 148 % of control | T/C (dose: 50.0 mg/kg/injection, schedule: Q01DX009 (ip), vehicle: water): 141 and 148 % of control | T/C (dose: 50.0 mg/kg/injection, schedule: Q01DX009 (sc), vehicle: carboxymethylcellulose (CMC)): 125 % of control | T/C (dose: 50.0 mg/kg/injection, schedule: Q01DX010 (ip), vehicle: alkali diluted with saline): 139, 150, 152, 155 % of control | T/C (dose: 50.0 mg/kg/injection, schedule: Q01DX Z (ip), vehicle: other): 116, 144, 148, 154 % of control | T/C (dose: 62.0 mg/kg/injection, schedule: Q01DX001 (ip), vehicle: carboxymethylcellulose (CMC)): 131 % of control | T/C (dose: 62.0 mg/kg/injection, schedule: Q06DX003 (ip), vehicle: carboxymethylcellulose (CMC)): 138 % of control | T/C (dose: 62.0 mg/kg/injection, schedule: Q08DX003 (ip), vehicle: carboxymethylcellulose (CMC)): 128 % of control | T/C (dose: 62.0 mg/kg/injection, schedule: Q10DX003 (ip), vehicle: carboxymethylcellulose (CMC)): 126 % of control | T/C (dose: 62.0 mg/kg/injection, schedule: Q## X003 (ip), vehicle: carboxymethylcellulose (CMC)): 148 % of control | T/C (dose: 62.5 mg/kg/injection, schedule: Q## X003 (ip), vehicle: carboxymethylcellulose (CMC)): 148 % of control | T/C (dose: 75.0 mg/kg/injection, schedule: Q01DX005 (ip), vehicle: other): 134 % of control | T/C (dose: 75.0 mg/kg/injection, schedule: Q01DX009 (ip), vehicle: other): 142 % of control | T/C (dose: 75.0 mg/kg/injection, schedule: Q01DX009 (sc), vehicle: carboxymethylcellulose (CMC)): 144 % of control | T/C (dose: 75.0 mg/kg/injection, schedule: Q01DX Z (ip), vehicle: other): 135 % of control | T/C (dose: 75.0 mg/kg/injection, schedule: Q03DX Z (ip), vehicle: water): 133 % of control | T/C (dose: 75.0 mg/kg/injection, schedule: Q#A X Z (ip), vehicle: carboxymethylcellulose (CMC)): 140 % of control | T/C (dose: 89.4 mg/kg/injection, schedule: Q01DX Z (ip), vehicle: carboxymethylcellulose (CMC)): 143 % of control | T/C (dose: 100.0 mg/kg/injection, schedule: Q01DX005 (ip), vehicle: saline with Tween-80): 100, 125, 127, 134 (2×), 135, 136, 138, 139, 144 (3×), 146 (2×), 148, 152, 157, 161 (2×), 163, 175 % of control | T/C (dose: 100.0 mg/kg/injection, schedule: Q01DX005 (ip), vehicle: saline): 119, 130 (2×), 133, 137 (4×), 138 (2×), 139, 140 (3×), 140 [5 of 6 alive], 142, 144, 145, 147 [4 of 6 alive], 147 [6 of 7 alive], 148 (2×), 149, 150 (3×), 151 (3×), 152 (2×), 152 [5 of 6 alive], 153, 155 (2×), 158 (3×), 160, 162, 162 [5 of 6 alive], 162 [6 of 7 alive], 164, 173, 175, 183 % of control | T/C (dose: 100.0 mg/kg/injection, schedule: Q01DX006 (iv), vehicle: water): 128 % of control [5 of 6 alive] | T/C (dose: 100.0 mg/kg/injection, schedule: Q01DX009 (ip), vehicle: saline with Tween-80): 125 % of control [5 of 6 alive] | T/C (dose: 100.0 mg/kg/injection, schedule: Q01DX009 (ip), vehicle: saline): 141 % of control | T/C (dose: 100.0 mg/kg/injection, schedule: Q01DX009 (ip), vehicle: water): 127 % of control [4 of 6 alive] | T/C (dose: 100.0 mg/kg/injection, schedule: Q01DX010 (ip), vehicle: alkali diluted with saline): 154, 155 (2×), 161 % of control | survivor count (dose: 100.0 mg/kg/injection, schedule: Q01DX015 (ip), vehicle: clinical formulation): 0 of 6 | T/C [3]: 140 % of control [4 of 6 alive] | survivor count [3]: 4 of 6
